In patent US20130244255A1, “ANTIBODIES DIRECTED TO GPNMB AND USES THEREOF” (priority 2006, published 2013):
These are yes or no findings as the source states them, for the method shown. Some results given as binding are weak or reduced against the parent protein; the word gives no strength.

Protein sequences, listed by entry. Tags and fused reporters are not part of them. Lines headed by an entry give the natural chain unless they say otherwise; changes in a name come on top.
UniProt Q14956: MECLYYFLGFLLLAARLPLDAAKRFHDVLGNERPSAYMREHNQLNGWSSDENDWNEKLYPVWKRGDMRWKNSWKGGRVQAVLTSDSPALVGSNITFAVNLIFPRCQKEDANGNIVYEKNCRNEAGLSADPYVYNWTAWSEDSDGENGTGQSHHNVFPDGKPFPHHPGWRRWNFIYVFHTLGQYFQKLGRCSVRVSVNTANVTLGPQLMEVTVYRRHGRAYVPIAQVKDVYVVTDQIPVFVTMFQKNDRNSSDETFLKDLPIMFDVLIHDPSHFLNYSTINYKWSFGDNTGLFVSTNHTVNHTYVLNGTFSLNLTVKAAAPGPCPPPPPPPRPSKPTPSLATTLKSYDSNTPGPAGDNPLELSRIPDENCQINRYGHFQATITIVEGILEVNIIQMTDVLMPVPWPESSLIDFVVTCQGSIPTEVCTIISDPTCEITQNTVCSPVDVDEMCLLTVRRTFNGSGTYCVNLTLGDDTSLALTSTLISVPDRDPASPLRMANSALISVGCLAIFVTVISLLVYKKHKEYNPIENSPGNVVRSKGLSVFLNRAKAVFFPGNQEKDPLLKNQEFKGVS

Legend:
[1] = biological target: GPNMB (CG56972) as expressed by human cell lines (human) (UniProt Q14956); assay: FACS on UACC-62 cells
[2] = biological target: GPNMB (CG56972) as expressed by human cell lines (human) (UniProt Q14956); assay: immunohistochemistry on normal and tumor human tissue microarrays
[3] = biological target: Recombinant human GPNMB extra-cellular domain (ECD) with a C-terminus V5-HIS tag (human) (UniProt Q14956); assay: Biacore, mAb captured on protein A

Row | binding [1] | binding [2] | binding [3] | Binder
1 | binds | binds | – | Mab2.22.1 (antibody, IgG2, V domains shown) VH: QVQLEQSGPGLVKPSQNLSLTCTVSGGSISSGGYFWSWIRQHPGKGLEWIGYIYYSGNTYYNPSLKSRVTISVDTSKNQFSLKLSSVTAADTAVYYCARDYYYDTSGFSYRYDWYYGMDVWGQGTTVTVSS VL: DIQLTQSPSSLSASVGDRVTITCRASQGIRNDLGWYQQKPGKAPKRLIYAASSLQNGVPSRFSGSGSGTEFTLTISSLQPEDFATYYCLQHNTYPAFGQGTKVEIKR
2 | – | – | binds | Mab1.10.2 (antibody, IgG2, V domains shown) VH: QVQLQESGPGLVKPSETLSLTCTVSGDSISNYYWSWIRQPPGKGLEWIGYFYYSGSTNYNPSLKSRVTISVDTSKNQFSLKLSSVTAADTAVYYCARDRGWADYWGQGTLVTVSS VL: EIVLTQSPGTLSLSPGERATLSCRTSQSISSSYLAWYQQKPGQVPRLLIYGASSRATGIPDRFSGSGSGTDFTLTISRLEPEDFAVYYCQQYGSSITFGQGTRLEIKR
